{"source": "patent US20220401450A1", "about": "“PEDIATRIC FORMULATIONS FOR TREATMENT OF CANCER” (CELGENE CORPORATION, priority 2019, published 2022)", "test": "Preliminary taste (palatability) assessment, swish-and-expectorate by trained panelists", "assay_type": "in vivo, human", "data": [{"smiles": "CC(C)(CNc1nc(Nc2ccnc(C(F)(F)F)c2)nc(-c2cccc(C(F)(F)F)n2)n1)OS(C)(=O)=O", "note": "[Compound 1B, 2-methyl-1-[(4-[6-(trifluoromethyl)pyridin-2-yl]-6-{[2-(trifluoromethyl)pyridin-4-yl]amino}-1,3,5-triazin-2-yl)amino]propan-2-ol methanesulfonate]", "values": [{"measurement": "taste masking challenge (bitterness)", "setting": "at 20 mg", "result": "low taste masking challenge"}, {"measurement": "taste masking challenge (bitterness)", "setting": "at 60 mg", "result": "moderate taste masking challenge"}, {"measurement": "amount below which bitterness was no longer perceptible", "setting": "in vivo", "result": "Below 7 mg"}]}]}
